Reference: article PMC3582556
Results are given in words; binding and its absence hold for the method and conditions named. In cells and extracts the contact can be indirect. Tags and fused reporters may be left off the sequences shown.

Target: T1, cYFP-VirF (Agrobacterium) (UniProt P15597)
T1 sequence: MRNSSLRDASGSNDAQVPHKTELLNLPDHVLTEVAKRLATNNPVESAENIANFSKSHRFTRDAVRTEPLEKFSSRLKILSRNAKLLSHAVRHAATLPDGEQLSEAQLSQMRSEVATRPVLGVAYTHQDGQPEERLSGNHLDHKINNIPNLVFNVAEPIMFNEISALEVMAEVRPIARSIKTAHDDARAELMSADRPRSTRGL
Assay: split reporter; BiFC with nYFP and cYFP fusions; construct pairs mixed 1:1 (w/w), microbombarded into N. benthamiana leaves, expressed 36-48 h at 22-24 C, confocal microscopy

Substance	binding
AtGnTL1-91N-nYFP (Arabidopsis thaliana) (domain or fragment)	no binding
nYFP-tagged AtGnTL (full-length) (Arabidopsis thaliana)	no binding
